Results taken from PubChem BioAssay AID2517 (National Center for Advancing Translational Sciences (NCATS), 2010).
In all, about 350,000 compounds went through this assay and about 1,200 (0.34%) were called active. The shares of active, inactive and inconclusive entries below differ from those in the screen. Calls come from the whole dose curve; as a rule, active = well fitted inhibition curve with a large enough effect; inconclusive = small, poorly fitted or top-dose-only effect; inactive = no such curve, though single readings can be large or run the other way. Where the call is inconclusive, the potency comes from a doubtful curve fit.

By UniProt entry, the sequences of proteins in these tests, tags left out.
UniProt P27695, whole entry, looked up: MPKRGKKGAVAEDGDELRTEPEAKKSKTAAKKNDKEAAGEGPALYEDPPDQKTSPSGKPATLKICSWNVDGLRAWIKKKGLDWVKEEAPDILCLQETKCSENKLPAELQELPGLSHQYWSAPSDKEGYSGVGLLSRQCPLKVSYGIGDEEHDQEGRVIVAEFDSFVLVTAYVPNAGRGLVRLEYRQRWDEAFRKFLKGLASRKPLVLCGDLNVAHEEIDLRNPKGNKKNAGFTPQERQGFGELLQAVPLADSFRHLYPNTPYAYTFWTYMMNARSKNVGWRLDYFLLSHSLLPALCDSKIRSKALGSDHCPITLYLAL

Each compound was assayed against DNA repair nuclease/redox regulator APEX1 (Homo sapiens) (UniProt P27695) (assay: qHTS Assay for Inhibitors of the Human Apurinic/apyrimidinic Endonuclease 1 (APE1)). Settings: recombinant APE1, TAMRA/BHQ-2 abasic DNA cleavage fluorescence; activity change, negative = inhibition: at 65.8 µM (top of the series).
How it was run: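 APE1 at 0.75 nM final was preincubated with compound 15 min at room temperature, then 50 nM double-stranded THF abasic-site substrate (5'-TAMRA/3'-BHQ-2) was added. Fluorescence (ex 525/em 598 nm) was read kinetically; third-minus-first read gave activity.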
Note: nearly all actives have a fitted effect of over 55% in size.
Potency is the fitted concentration of half-maximal effect.
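Throughout, for activity change, negative = inhibition: plate controls were vehicle for no effect and reference inhibitor for full effect.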

Row | SMILES | Potency | activity change, negative = inhibition
1 | CCSc1nnc(NC(=O)CN2C(=O)C3CC=CCC3C2=O)s1 (stereo unspecified) | inactive | 
2 | CN(C)NC(=S)NC1CCS(=O)(=O)C1 (stereo unspecified) | inconclusive: 12.6 µM [inhibitor, partial curve, poor fit] | 
3 | CC(=O)NC(C)c1nc2ccccc2n1C(C)C (stereo unspecified) | inconclusive: 3.98 µM [inhibitor, full curve, poor fit] | 
4 | CCCN1Cc2cccc(C(=O)N3CCN(c4ccc(OC)cc4)CC3)c2C1=O | inconclusive: 39.8 µM [inhibitor, single point] | 
5 | O=C(O)c1cccc(Cn2c(Cl)c(/C=N/NC(=O)c3cc4ccccc4cc3O)sc2=O)c1 | inconclusive: 7.08 µM [inhibitor, single point] | 
6 | COc1ncc2nc(-c3cccs3)c(=O)n(CCc3ccccc3)c2n1 | inactive | 
7 | COc1ccc(CC(=O)Nc2nc3n(n2)C(c2ccccc2)CC(=O)N3)cc1OC (stereo unspecified) | inconclusive: 8.91 µM [inhibitor, single point] | 
8 | Clc1ccccc1OCc1nc(-c2ccc(Br)o2)no1 | inconclusive: 35.5 µM [inhibitor, single point] | 
9 | O=C(NCc1ccco1)c1cccn2c(=O)c3cc4ccccc4cc3nc12 | inconclusive: 25.1 µM [inhibitor, partial curve] | 
10 | O=C1CC(c2ccc3c(c2)OCO3)c2cc(O)ccc2O1 (stereo unspecified) | inconclusive: 31.6 µM [inhibitor, partial curve] | 
11 | CCn1c(O)c(C=C2N=c3ccccc3=N2)sc1=S | inactive | 
12 | COC(=O)c1c(C)c2c(C)cc3ccccn3c-2c1C(=O)OC | inactive | 
13 | O=C(Cc1ccc(-c2ccccc2)cc1)NNC(=S)NCc1ccco1 | inconclusive: 0.0891 µM [inhibitor, full curve] | 
14 | CSc1ccccc1NC(=O)CN(C)C(C)C(=O)Nc1ccc(C#N)cc1 (stereo unspecified) | inconclusive: 0.126 µM [inhibitor, full curve, poor fit] | 
15 | Oc1cccc(/C=N/NC(=S)NCCN2CCOCC2)c1O | inconclusive: 0.794 µM [inhibitor, full curve, poor fit] | 
16 | COc1ccc(CCNC(=O)C(=O)NCC2OCCN2S(=O)(=O)c2ccc(Br)cc2)cc1 (stereo unspecified) | inconclusive: 10 µM [inhibitor, partial curve, poor fit] | 
17 | O=C(N/N=C/c1cccnc1)/C(=C\c1cccs1)NC(=O)c1ccccc1 | inactive | 
18 | Cc1ccc(-c2[nH]ncc2/C=N/n2c(COc3ccccc3C)nc3ccccc3c2=O)cc1 | inconclusive: 3.98 µM [inhibitor, partial curve, poor fit] | 
19 | CCN(CC)CCN1c2ccccc2Sc2ccccc21 | inactive | 
20 | CN1C(=O)/C(=C/c2ccco2)SC1=Nc1cccc(C(=O)O)c1 | inconclusive: 31.6 µM [inhibitor, partial curve] | 
21 | CCCC1=NN2C(=N)/C(=C\c3ccc(OCCOc4ccc(NC(C)=O)cc4)c(OC)c3)C(=O)N=C2S1 | inconclusive: 33.6 µM [inhibitor, single point] | 

Reprinted: nos. 11 to 12
Row | SMILES | Potency | activity change, negative = inhibition
11 | CCn1c(O)c(C=C2N=c3ccccc3=N2)sc1=S | inactive | 
12 | COC(=O)c1c(C)c2c(C)cc3ccccn3c-2c1C(=O)OC | inactive | 

The list continues:

Row | SMILES | Potency | activity change, negative = inhibition
22 | [O-][n+]1c2c(nn1-c1ccccc1)/C(=N/O)CCC2 | inactive | 
23 | O=C(OCC(=O)N1CCCc2ccccc21)c1cccc(S(=O)(=O)N2CCOCC2)c1 | inconclusive: 26.7 µM [inhibitor, single point] | 
24 | C=CCNC(=O)Cc1c(OC)ccc2cc(Br)ccc12 | inconclusive: 8.91 µM [inhibitor, single point] | 
25 | COc1ccc(-c2c(C)nn3c(N4CCOCC4)cc(C)nc23)cc1OC | inconclusive: 37.7 µM [inhibitor, single point] | 
26 | CCn1c(CNC(=O)c2ccc(Cl)cc2)nnc1SCC(=O)N1CCOCC1 |  | inconclusive: 12.3% [inhibitor]
27 | COc1cc(/C=C2/C(=N)N3C(=NC2=O)SN=C3S(C)(=O)=O)ccc1OS(=O)(=O)c1ccccc1 | inactive | 
28 | C=C1CCN([C@H](C(=O)NCc2ccc(OC)cc2)C(C)C)S(=O)(=O)c2ccccc21 | inconclusive: 5.62 µM [inhibitor, single point] | 
29 | C/C(=N\NC(=O)c1cc(O)ccc1O)c1cccc(NC(=O)c2cccc(Cl)c2)c1 | inactive | 
30 | CC1(C)OC(C(O)(c2ccccc2)c2ccccc2)C(C(O)(c2ccccc2)c2ccccc2)O1 (stereo unspecified) | inconclusive: 3.16 µM [inhibitor, single point] | 
31 | CCOC(=O)c1c(NC(=O)C(C)Sc2cn(C)c3ccccc23)sc2c1CCC2 (stereo unspecified) | inconclusive: 8.91 µM [inhibitor, single point] | 
32 | CC(C)(C)c1ccc(C(=O)N2CCC(=O)N(C(CO)Cc3ccccc3)CC2)cc1 (stereo unspecified) | inconclusive: 3.98 µM [inhibitor, single point] | 
33 | COc1ccc(C(=O)COC(=O)/C=C/c2ccco2)cc1F | inconclusive: 15 µM [inhibitor, partial curve] | 
34 | Cn1ncc(N=Cc2ccc([N+](=O)[O-])cc2)c1C(=O)Nc1ccccc1 | inconclusive: 39.8 µM [inhibitor, single point] | 
35 | COc1[nH]c(/N=C/c2ccccc2)c(C#N)c1C#N | inactive | 
36 | C=C(NC(=O)C(=C)NC(=O)c1csc(C2=NC3c4csc(n4)C4NC(=O)c5csc(n5)C(C(C)(O)C(C)O)NC(=O)C5CSC(=N5)C(=CC)NC(=O)C(C(C)O)NC(=O)c5csc(n5)C3(CC2)NC(=O)C(C)NC(=O)C(=C)NC(=O)C(C)NC(=O)C(C(C)CC)NC2C=Cc3c(C(C)O)cc(nc3C2O)C(=O)OC4C)n1)C(N)=O (stereo unspecified) | inconclusive: 17.8 µM [inhibitor, partial curve, poor fit] | 
37 | O=C(N/N=C/c1ccc([N+](=O)[O-])o1)c1cc(-c2ccncc2)nc2ccccc12 | inactive | 
38 | Cc1cc(NC(=O)c2cc(S(=O)(=O)N3CCCCC3)ccc2C)no1 | inconclusive: 23.8 µM [inhibitor, single point] | 
39 | CCOc1ccccc1C1C(C(=O)OC)=CN(C)C=C1C(=O)OC | inconclusive: 14.1 µM [inhibitor, partial curve] | 
40 | Oc1ccc(-c2nc(-c3ccc(O)c(O)c3)cs2)cc1 | inconclusive: 31.6 µM [inhibitor, single point] | 
41 | O=C(CCNC(=O)c1ccccc1)NN=Cc1ccc(Br)o1 | active: 15 µM | 
